This note sets out measurements from the supplement of paper PMC10398353.

Structures can show the parent of a compound that is named as a salt. ± gives the standard deviation of the averaged measurements. This is one part of the list. Single values of this set are uncertain.

In the experiment the test system is Salmonella enterica serovar Typhimurium ST313 D23580. As to the kind of experiment: normalized bacterial growth (OD600 20 h minus 0 h, interquartile-mean normalized) (fraction of plate interquartile mean); higher = more bacterial growth (less inhibition). Particulars: LPM (pH 5.8, low phosphate, low Mg2+), concentration: 10 µM, temperature: 37 °C.
As to `CC(=O)OCC(=O)[C@@]1(O)CC[C@H]2[C@@H]3CCC4=CC(=O)CC[C@]4(C)[C@H]3C(=O)C[C@@]21C`, the normalized bacterial growth is 1.22.

In turn, `CC(=O)OCC(=O)[C@@]1(O)CC[C@H]2[C@@H]3CCC4=CC(=O)CC[C@]4(C)[C@H]3C(=O)C[C@@]21C` [Cortisone 21-acetate] came in with a normalized bacterial growth of 1.13.

In turn, `CC(=O)OCC(=O)[C@@]1(O)CC[C@H]2[C@@H]3CCC4=CC(=O)C=C[C@]4(C)[C@@]3(F)[C@@H](O)C[C@@]21C` [Isoflupredone acetate] gave a normalized bacterial growth of 1.07.

`COc1c2occc2cc2ccc(=O)oc12`: the normalized bacterial growth amounted to 0.973.

`N=C(NCCCCCCNC(=N)NC(=N)Nc1ccc(Cl)cc1)NC(=N)Nc1ccc(Cl)cc1` [Chlorhexidine] showed a normalized bacterial growth of 1.05.

`N=C(NCCCCCCNC(=N)NC(=N)Nc1ccc(Cl)cc1)NC(=N)Nc1ccc(Cl)cc1` yielded a normalized bacterial growth of 0.849.

As for `NCc1ccccc1CC(=O)N[C@@H]1C(=O)N2C(C(=O)O)=C(CSc3nnnn3CC(=O)O)CS[C@H]12` [Ceforanide], the normalized bacterial growth was 0.95.

In the case of `CN1CCN(C2=Nc3ccccc3Oc3ccc(Cl)cc32)CC1` [Loxapine succinate], the normalized bacterial growth came to 0.882.

Compound `COC(=O)c1cc(O)c(=O)c2c(O)c(O)ccc2c1` came in with a normalized bacterial growth of 0.911.

Compound `C[N+]1(C)CCC(OC(=O)C(O)(c2ccccc2)C2CCCC2)C1` (stereo unspecified) showed a normalized bacterial growth of 1.1.

`CCCCCCCCCCCCCCCCCCOCC(O)CO` (stereo unspecified) yielded a normalized bacterial growth of 1.28.

`C[C@@H]1C[C@H]2O[C@@H]2/C=C\C=C\C(=O)Cc2c(Cl)c(O)cc(O)c2C(=O)O1` yielded a normalized bacterial growth of 1.24.

`Clc1ccc(CCC(Cn2ccnc2)Sc2c(Cl)cccc2Cl)cc1` (stereo unspecified) [Butoconazole nitrate] gave a normalized bacterial growth of 0.675.

Regarding `CCCCCc1c2c(cc(O)c1C(=O)O)OC(=O)c1c(cc(OC)cc1C(=O)CCCC)O2`, the normalized bacterial growth was 0.777.

`COC1=C[C@@H](C)[C@@H]2C[C@H]3OC(=O)C[C@H]4C(C)=C(OC)C(=O)[C@H]([C@@]2(C)C1=O)[C@@]34C` came in with a normalized bacterial growth of 0.984 ± 0.082.

`C[C@@H]1C[C@H]2[C@@H]3C[C@H](F)C4=CC(=O)C=C[C@]4(C)[C@@]3(F)[C@@H](O)C[C@]2(C)[C@@]1(O)C(=O)CO` [Flumethasone] yielded a normalized bacterial growth of 1.23.

For the compound `O=C(O)Cc1ccc(-c2ccccc2)cc1` [Felbinac], the normalized bacterial growth came to 1.18.

The compound `O=C(O)c1cn(-c2ccc(F)cc2)c2cc(N3CCNCC3)c(F)cc2c1=O` came in with a normalized bacterial growth of 0.126.

Turning to `CC[C@H](/C=C/[C@@H](C)[C@H]1CC[C@H]2[C@@H]3CC=C4C[C@@H](O)CC[C@]4(C)[C@H]3CC[C@]12C)C(C)C`, the normalized bacterial growth came to 0.87.

The compound `NCCC[C@](N)(C(=O)O)C(F)F` (racemic) [DL-alpha-Difluoromethylornithine hydrochloride] displayed a normalized bacterial growth of 0.905.

Compound `CC(=O)OCC(=O)[C@@]1(O)[C@@H](C)C[C@H]2[C@@H]3CCC4=CC(=O)C=C[C@]4(C)[C@@]3(F)[C@@H](O)C[C@@]21C` displayed a normalized bacterial growth of 0.795.
